These results are taken from article PMC7067828.

The chains behind the UniProt entries cited, without tags or fusion partners. Residues count along the entry.
UniProt Q96PZ2, 176-282: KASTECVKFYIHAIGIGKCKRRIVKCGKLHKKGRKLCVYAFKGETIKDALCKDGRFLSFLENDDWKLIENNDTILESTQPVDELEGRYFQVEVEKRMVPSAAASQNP
UniProt Q96PZ2, 176-282 F231A: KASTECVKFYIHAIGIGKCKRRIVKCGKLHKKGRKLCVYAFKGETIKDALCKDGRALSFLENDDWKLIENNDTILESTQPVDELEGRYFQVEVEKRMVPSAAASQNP
UniProt Q96PZ2, whole entry: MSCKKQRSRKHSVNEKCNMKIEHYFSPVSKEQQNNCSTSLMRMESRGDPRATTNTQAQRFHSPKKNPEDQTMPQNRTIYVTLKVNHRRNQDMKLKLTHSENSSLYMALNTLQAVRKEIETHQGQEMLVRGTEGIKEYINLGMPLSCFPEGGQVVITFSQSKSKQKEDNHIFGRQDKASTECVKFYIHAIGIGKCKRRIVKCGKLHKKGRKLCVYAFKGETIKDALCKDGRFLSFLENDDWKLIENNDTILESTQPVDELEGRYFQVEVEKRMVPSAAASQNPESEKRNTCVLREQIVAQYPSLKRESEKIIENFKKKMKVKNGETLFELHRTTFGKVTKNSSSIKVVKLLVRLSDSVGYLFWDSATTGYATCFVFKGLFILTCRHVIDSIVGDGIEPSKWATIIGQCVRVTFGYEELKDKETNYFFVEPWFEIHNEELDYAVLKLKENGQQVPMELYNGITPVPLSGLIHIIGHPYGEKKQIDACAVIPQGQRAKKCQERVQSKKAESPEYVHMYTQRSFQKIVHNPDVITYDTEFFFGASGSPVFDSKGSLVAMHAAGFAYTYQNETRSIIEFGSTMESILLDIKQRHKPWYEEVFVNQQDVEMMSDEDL
UniProt Q96PZ2, 1-282: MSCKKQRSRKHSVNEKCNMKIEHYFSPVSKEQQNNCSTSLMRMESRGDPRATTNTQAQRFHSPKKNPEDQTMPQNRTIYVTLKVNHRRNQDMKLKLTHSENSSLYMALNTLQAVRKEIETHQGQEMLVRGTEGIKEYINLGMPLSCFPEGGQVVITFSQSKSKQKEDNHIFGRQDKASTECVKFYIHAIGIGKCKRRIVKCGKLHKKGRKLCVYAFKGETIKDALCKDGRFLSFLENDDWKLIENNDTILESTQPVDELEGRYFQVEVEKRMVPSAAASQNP
UniProt Q96PZ2, 1-282 F231A: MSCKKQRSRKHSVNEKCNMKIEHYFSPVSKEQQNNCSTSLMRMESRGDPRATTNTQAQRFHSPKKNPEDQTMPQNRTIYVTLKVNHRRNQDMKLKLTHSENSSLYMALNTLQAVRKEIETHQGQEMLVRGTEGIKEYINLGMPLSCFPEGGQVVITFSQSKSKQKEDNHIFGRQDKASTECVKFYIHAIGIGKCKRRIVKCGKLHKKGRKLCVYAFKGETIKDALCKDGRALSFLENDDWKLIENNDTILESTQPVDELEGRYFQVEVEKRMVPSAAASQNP
UniProt Q96PZ2, 1-254: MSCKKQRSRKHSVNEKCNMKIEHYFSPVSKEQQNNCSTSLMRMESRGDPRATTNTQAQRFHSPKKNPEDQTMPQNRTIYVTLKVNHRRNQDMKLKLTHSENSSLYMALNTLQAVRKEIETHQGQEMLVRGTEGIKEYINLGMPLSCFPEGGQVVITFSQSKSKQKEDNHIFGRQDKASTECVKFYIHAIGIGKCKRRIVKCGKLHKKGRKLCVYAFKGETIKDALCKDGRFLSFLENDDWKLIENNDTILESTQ

For part of these data: Weaker means in comparison with the reference protein, sequence or condition of that experiment. For part of these data: The exact form of at least one protein or probe is not confirmed. For part of these data: At least one verdict was read from the data and is not stated in words by the source.

In series [1] the target is MBP-FAM111A 176-282 (human) (UniProt Q96PZ2). Kind of series: fluorescence polarization. The following applies: FP: 10 mM HEPES-NaOH pH 7.5, 150 mM NaCl, 10 nM DNA; recombinant protein; residues 176-282; protein details: N-terminal MBP; label: 5' 6-FAM; single-stranded DNA. Background: Fluorescence polarisation rises when a labelled molecule tumbles more slowly, as on binding a larger partner.

Series [2] addresses MBP-FAM111A 176-282 F231A (human) (UniProt Q96PZ2). Kind of series: fluorescence polarization. The following applies: FP: 10 mM HEPES-NaOH pH 7.5, 150 mM NaCl, 10 nM DNA; recombinant protein; residues 176-282; protein details: N-terminal MBP; label: 5' 6-FAM; single-stranded DNA.
Series [3] has as its target GST-FAM111A-strep (human) (UniProt Q96PZ2). Briefly: EMSA. The following applies: 5 mM Mg2+; EMSA: 25 mM Tris-HCl pH 7.5, 5 mM MgCl2, 10% glycerol, 20 ng/ul BSA, 1 mM DTT, 0.7 pmol DNA in 10 ul, on ice 1 h; recombinant protein; residues …; protein details: N-terminal GST, C-terminal tandem Strep; label: 5' IRDye700 on strand 1. On the technique in general: In EMSA bound probe runs differently from free probe, usually more slowly.

The target in series [4] is MBP-FAM111A 1-282 (human) (UniProt Q96PZ2). Briefly: EMSA. The following applies: 5 mM Mg2+; EMSA: 25 mM Tris-HCl pH 7.5, 5 mM MgCl2, 10% glycerol, 20 ng/ul BSA, 1 mM DTT, 0.7 pmol DNA in 10 ul, on ice 1 h; recombinant protein; residues …; protein details: N-terminal MBP; label: 5' IRDye700 on strand 1.
Series [5] has as its target MBP-FAM111A 1-282 F231A (human) (UniProt Q96PZ2). Kind of series: EMSA. The following applies: 5 mM Mg2+, EMSA: 25 mM Tris-HCl pH 7.5, 5 mM MgCl2, 10% glycerol, 20 ng/ul BSA, 1 mM DTT, 0.7 pmol DNA in 10 ul, on ice 1 h, recombinant protein, residues …, protein details: N-terminal MBP.
Series [6] addresses MBP-FAM111A 176-282 (human) (UniProt Q96PZ2). Kind of series: EMSA. The following applies: 5 mM Mg2+; EMSA: 25 mM Tris-HCl pH 7.5, 5 mM MgCl2, 10% glycerol, 20 ng/ul BSA, 1 mM DTT, 0.7 pmol DNA in 10 ul, on ice 1 h; recombinant protein; residues 176-282; protein details: N-terminal MBP; label: 5' IRDye700 on strand 1.
Series [7] addresses MBP-FAM111A 176-282 F231A (human) (UniProt Q96PZ2). Kind of series: EMSA. The following applies: 5 mM Mg2+, EMSA: 25 mM Tris-HCl pH 7.5, 5 mM MgCl2, 10% glycerol, 20 ng/ul BSA, 1 mM DTT, 0.7 pmol DNA in 10 ul, on ice 1 h, recombinant protein, residues 176-282, protein details: N-terminal MBP.
In series [8] the target is MBP-FAM111A 1-254 (human) (UniProt Q96PZ2). Briefly: EMSA. The following applies: 5 mM Mg2+; EMSA: 25 mM Tris-HCl pH 7.5, 5 mM MgCl2, 10% glycerol, 20 ng/ul BSA, 1 mM DTT, 0.7 pmol DNA in 10 ul, on ice 1 h; recombinant protein; residues …; protein details: N-terminal MBP; label: 5' IRDye700; single-stranded DNA.
Series [9] deals with MBP-FAM111A 1-282 del176-208 (human) (UniProt Q96PZ2). Briefly: EMSA. The following applies: 5 mM Mg2+; EMSA: 25 mM Tris-HCl pH 7.5, 5 mM MgCl2, 10% glycerol, 20 ng/ul BSA, 1 mM DTT, 0.7 pmol DNA in 10 ul, on ice 1 h; recombinant protein; residues …; protein details: N-terminal MBP; label: 5' IRDye700; single-stranded DNA.
Series [10] deals with MBP-FAM111A 1-282 del209-254 (human) (UniProt Q96PZ2). Kind of series: EMSA. The following applies: 5 mM Mg2+; EMSA: 25 mM Tris-HCl pH 7.5, 5 mM MgCl2, 10% glycerol, 20 ng/ul BSA, 1 mM DTT, 0.7 pmol DNA in 10 ul, on ice 1 h; recombinant protein; residues …; protein details: N-terminal MBP; label: 5' IRDye700; single-stranded DNA.
Setting [11] is: label: 5' IRDye700, single-stranded DNA.

For “CGACGATGCTCCGGTACTCCAGTGTAGGCAT [6-FAM-O1676 (31 nt)]”, the results for the binding result in series [1] and in [2] were “binds” and “binds more weakly”, respectively.

Turning to “GTTTTCCCAGTCACGACGATGCTCCGGTACTCCAGTGTAGGCATATTACGAATTCTTGAGGCAGGCATGGTAGCT (double strand) [dsDNA O3063/O4786]”, the binding result in series [3] was “binds more weakly”.

As for “GTTTTCCCAGTCACGACGATGCTCCGGTACTCCAGTGTAGGCATATTACGAATTCTTGAGGCAGGCATGGTAGCT / AGCTACCATGCCTGCCTCAAGAATTCGTAATATGCCTACACTGGACCGTACTTCGCCTAGTAGACTGCCTTCCCG [Y fork O3063/O4787]”, the binding result is reported as “binds” in [4], “binds more weakly” in series [5] (label: 5' IRDye700 on strand 1), “binds” in series [6] and “binds more weakly” in [7] (label: 5' IRDye700 on strand 1).

With “GTTTTCCCAGTCACGACGATGCTCCGGTACTCCAGTGTAGGCATATTACGAATTCTTGAGGCAGGCATGGTAGCT [ssDNA O3063 (75 nt)]”, the binding result in series [8], in series [5] (setting [11]), in [9], in series [10] and in series [7] (setting [11]) was “binds more weakly” throughout.
